A short description of this assay: qHTS Assay for Lipid Storage Modulators in Drosophila S3 Cells.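 On cell number change: cells counted by Cell Tracker Red CMTPX staining in the red channel.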 As to conditions: BODIPY lipid droplet fluorescence, 18-24 h; for cell number change: measured here: cell count max response, cells fed with added oleic acid. In a few lines: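 Drosophila S3 cells got compounds at several concentrations plus oleic acid (400 uM solution). Laser-scanning cytometry with 488 nm excitation read lipid droplets at 500-530 nm and cells at 575-640 nm. Percent activity was relative to 20 uM Triacsin C.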

Where [1] appears, read: measured here: cell number channel AC50, cells fed with added oleic acid.
Where [2] appears, read: measured here: lipid fluorescence (Fed channel) AC50, cells fed with added oleic acid.

The list shows a part of the results. The main result of the screen is listed elsewhere. These columns were measured beside it and carry no call. Compounds called inactive in the main read-out are mostly missing here. Potencies come from curve fits of mixed quality, noted in brackets.

Data on 57 molecules can be found in PubChem BioAssay AID2685 (National Center for Advancing Translational Sciences (NCATS), 2010).

With `CCOc1ccc(CC(=O)OCn2nnc3ccccc3c2=O)cc1`, the cell number change is -16.4%. For the same molecule, the AC50 under setting [1] is 2.31 µM [falling, partial curve, poor fit]. Also, the AC50 under setting [2] was 2.31 µM [falling, partial curve, poor fit].

Consider `Cc1ccc(CC(=S)N2CCOCC2)cc1`, for which the cell number change is -82.1%. Besides, under setting [1], the AC50 was 29.1 µM [falling, single point]. For the same molecule, the AC50 under setting [2] is 29.1 µM [falling, single point].

Consider `Cc1sc(NC(=O)C2=COCCO2)c(C(N)=O)c1C`, for which the cell number change stood at 37.4%. Besides, the AC50 under setting [1] was 14.6 µM [rising, partial curve, poor fit]. The AC50 under setting [2] was 20.6 µM [rising, partial curve].

In the case of `O=C(CCNC(=O)c1ccco1)Nc1cccc(Br)c1`, the cell number change is 23.1%.

On to `O=C(NC1CCCc2ccccc21)c1cc(F)cc(F)c1` (stereo unspecified), for which the cell number change is 18.1%.

Take `Cn1c(=O)c2c(ncn2CC(=O)Nc2ccc(N3CCOCC3)cc2)n(C)c1=O`: the cell number change is 2.09%. Further, the AC50 under setting [2] is 1.64 µM [falling, single point].

`CCN1CCN(C(=O)c2ccc3c(c2)N(Cc2ccccc2F)C(=O)c2ccccc2S3(=O)=O)CC1`: under setting [2], the AC50 was 0.00411 µM [rising, full curve, poor fit].

As to `COc1cc(NC(=O)C2CC(c3ccccc3Cl)=NO2)cc(OC)c1OC` (stereo unspecified), the cell number change is -40.4%. Further, under setting [1], the AC50 was 0.0411 µM [falling, full curve, poor fit].

Consider `COc1ccc2cc(C)c(SCC(=O)Nc3cc(C)on3)nc2c1`, for which the cell number change came to 26%.

Regarding `Cc1cc(Oc2cc(N)cc([N+](=O)[O-])c2)ccc1Cl`, the cell number change was -55.2%. Besides, the AC50 under setting [1] was 2.91 µM [rising, single point]. Further, the AC50 under setting [2] was 32.6 µM [falling, single point].

For the molecule `CC(C)(C)NC(=O)CN(Cc1cccnc1)C(=O)c1csnn1`, the cell number change is -21.9%. Besides, the AC50 under setting [1] was 0.00731 µM [falling, full curve, poor fit]. Moreover, the AC50 under setting [2] is 6.51 µM [rising, single point].

For the molecule `CC1CCN(S(=O)(=O)c2ccc3nc(N4CCN(c5ccccc5)CC4)ccc3c2)CC1`, the cell number change was -13.7%. Also, the AC50 under setting [2] is 14.6 µM [rising, partial curve].

Turning to `c1ccc2c(c1)CCc1snnc1-2`, the cell number change was 20.8%. Further, the AC50 under setting [2] was 29.1 µM [rising, single point].

In the case of `COc1ccc(NC(=O)CCSc2ccc(C)cc2)cc1`, the cell number change is 6.59%. Moreover, under setting [2], the AC50 was 0.184 µM [rising, partial curve].

On to `O=C(/C(=C/O)N=Nc1ccccc1Cl)c1ccccc1`, for which the cell number change is -64.7%. For the same molecule, the AC50 under setting [1] is 29.1 µM [falling, single point]. Further, the concentration at half-maximal activity (AC50) under setting [2] is 29.1 µM [falling, single point].

`COc1cccc2cc(C(=O)NC(C)C3CCCO3)c(=O)oc12` (stereo unspecified): the cell number change was 45.6%. Besides, under setting [1], the AC50 was 4.11 µM [rising, full curve].

Consider `NC(=O)c1cc2c3ccccc3ccn2c1-c1ccccc1`, for which the cell number change was -2.44%. Under setting [2], the AC50 was 29.1 µM [falling, single point].

As for `O=[N+]([O-])c1cccc(S(=O)(=O)NCCCn2ccnc2)c1`, the cell number change was 23.5%.

For `O=S1(=O)CCC(N=Cc2cc(Br)ccc2O)C1` (stereo unspecified), the AC50 was 0.92 µM [falling, full curve, poor fit] under setting [1] and 0.651 µM [falling, full curve] under setting [2].

`Nc1nonc1C(=O)NCCNCc1cc(Br)ccc1OCc1ccccc1F`: the cell number change is -11.6%. Besides, the concentration at half-maximal activity (AC50) under setting [1] was 0.58 µM [rising, single point]. In addition, the AC50 under setting [2] is 29.1 µM [falling, single point].

Turning to `O=C(NCc1cccs1)C1CC(=O)N(c2ccc(F)cc2)C1` (stereo unspecified), the cell number change is 2.28%.

In the case of `COc1ccc(NC(=O)CSc2nncn2C)cc1`, the cell number change was determined as 35.6%. Moreover, the AC50 under setting [1] was 29.1 µM [rising, partial curve]. The AC50 under setting [2] is 11.6 µM [rising, partial curve].

For the molecule `Cc1ccc(C(=O)N/N=C/c2ccc(OC(=O)c3ccccc3Cl)cc2)cn1`, the cell number change is 497%. For the same molecule, the AC50 under setting [1] was 29.1 µM [rising, partial curve]. In addition, under setting [2], the AC50 was 5.17 µM [rising, single point].

As to `COc1cc(CNC(C)c2ccccc2)cc(Cl)c1OCC(=O)Nc1ccccc1` (stereo unspecified), the cell number change was -65.3%. Further, under setting [1], the AC50 was 35.5 µM [falling, single point]. Moreover, the AC50 under setting [2] was 25.1 µM [falling, single point].

Consider `CCOC(=O)N1CCN(C2=C(NS(=O)(=O)c3ccccc3)C(=O)c3ccccc3C2=O)CC1`, for which the cell number change is -8.96%. Moreover, under setting [2], the AC50 is 6.51 µM [falling, single point].

With `CC(NC(=O)C1CCCN1S(=O)(=O)c1ccc2c(c1)n(C)c(=O)c(=O)n2C)c1ccccc1` (stereo unspecified), the cell number change was -26.9%. Also, the AC50 under setting [2] was 2.06 µM [rising, partial curve].

For `O=C(Cn1ncc2c1-c1ccccc1OC2)Nc1nc2ccccc2s1`, the cell number change is -6.14%. Besides, the AC50 under setting [2] is 29.1 µM [falling, single point].

As to `Cc1cccc(N(CC(=O)N2CCCC2)S(C)(=O)=O)c1`, the cell number change came to 23%. For the same molecule, under setting [2], the AC50 was 29.1 µM [rising, single point].

As to `CCCC[C@@H]1CNCCN1CCc1cccc(F)c1`, the cell number change was determined as 11%. In addition, under setting [2], the AC50 is 29.1 µM [rising, single point].

In the case of `O=C1N=C2SCCN2/C1=C\c1c(Cl)cccc1Cl`, the cell number change was 62.2%. Under setting [1], the AC50 is 29.1 µM [rising, single point].

On to `O=C(c1cnccn1)N(Cc1ccco1)C1(C(=O)NC2CCCC2)CCCCC1`, for which the cell number change came out at 10.1%. Moreover, the AC50 under setting [2] is 29.1 µM [rising, single point].

With `Cc1ccc(C2=NN(C(=O)COc3ncnc4ccccc34)C(c3ccco3)C2)cc1` (stereo unspecified), the cell number change amounted to 4.78%. For the same molecule, under setting [1], the AC50 is 4.61 µM [rising, single point]. Also, under setting [2], the half-maximal activity concentration (AC50) was 4.11 µM [rising, partial curve].

For `Cc1ccccc1-n1c(SC(C)C(N)=O)nnc1-c1cccnc1` (stereo unspecified), the cell number change is 8.88%. Besides, under setting [2], the AC50 is 0.0651 µM [falling, full curve, poor fit].

On to `COc1ccc(CNC(=O)C(C)OC(=O)c2cccn2C)cc1` (stereo unspecified), for which the cell number change is 13.4%.

On to `Cc1cc(C)cc(NC2=C(N)C(=O)c3ccccc3C2=O)c1`, for which the cell number change was -31%. Moreover, the AC50 under setting [1] is 0.231 µM [falling, partial curve, poor fit]. The AC50 under setting [2] was 0.651 µM [falling, full curve].

As to `COCCn1c(SCCCC(=O)c2ccc(Br)cc2)nnc1-c1ccncc1`, the cell number change was 239%. Under setting [1], the AC50 is 18.4 µM [rising, single point]. For the same molecule, the AC50 under setting [2] is 29.1 µM [rising, single point].

Consider `O=C(NC(=S)NCc1cccnc1)c1cc(Br)ccc1Cl`, for which the cell number change is -25.8%. Also, the AC50 under setting [2] was 1.16 µM [falling, full curve].

Take `O=C(/C=C/c1ccc(F)cc1)NCCCn1ccnc1`: the cell number change is 14.8%. For the same molecule, the AC50 under setting [2] was 29.1 µM [rising, single point].

`NNc1nc(N)c2c(n1)-c1ccccc1CC21CCCC1`: the cell number change amounted to 2.62%. In addition, the AC50 under setting [2] was 0.184 µM [rising, single point].

For the molecule `O=C(OCc1ccc(F)cc1Cl)c1ccccn1`, the cell number change was -35.4%. Besides, the AC50 under setting [1] was 32.6 µM [falling, single point].

Consider `CC(=O)c1ccc(NC(=O)c2cccc(N3C(=O)c4ccccc4C3=O)c2)cc1`, for which the cell number change was -0.431%. Also, the AC50 under setting [2] is 0.58 µM [rising, single point].

Take `COc1ccc2cc(C(=O)NCc3ccccc3)c(=Nc3ccc(C(=O)O)cc3)oc2c1`: the cell number change turned out to be 23.7%. The AC50 under setting [1] is 0.326 µM [rising, full curve, poor fit]. Also, the AC50 under setting [2] was 2.59 µM [rising, partial curve, poor fit].

As for `CN(CC(=O)Nc1ccc(S(=O)(=O)N2CCCC2)cc1)CC(=O)Nc1ccc(F)c(F)c1F`, the cell number change is -0.481%. In addition, the AC50 under setting [2] is 0.461 µM [rising, full curve, poor fit].

`COc1ccccc1NC(=O)C1C2C=CC(O2)C1C(=O)O` (stereo unspecified): the cell number change was 36.5%. In addition, the AC50 under setting [1] is 18.4 µM [rising, single point]. The AC50 under setting [2] was 29.1 µM [rising, single point].

In the case of `COc1ccc(S(=O)(=O)N2CCCC2C(=O)NCC(=O)Nc2cccc(Cl)c2C)cc1` (stereo unspecified), under setting [2], the AC50 is 5.17 µM [rising, single point].

With `O=C(c1ccc2nc[nH]c2c1)N1CCN(S(=O)(=O)c2cccc(F)c2)CC1`, the cell number change is -21.9%. Moreover, the AC50 under setting [2] was 20.6 µM [falling, single point].

For the molecule `O=C(N/C(=C/C=C/c1ccccc1)C(=O)N1CCOCC1)c1ccccc1Cl`, the cell number change is 41.3%. In addition, the half-maximal activity concentration (AC50) under setting [1] was 20.6 µM [rising, single point].

With `CCOC(=O)N1CCN(C(=O)c2ccc3c(=O)n(Cc4ccc(Cl)cc4)c(=S)[nH]c3c2)CC1`, the cell number change was -16.8%. Further, the AC50 under setting [2] is 29.1 µM [falling, partial curve, poor fit].

Consider `CN(C)c1ccc(C=C(c2nnnn2-c2ccccc2)c2nnnn2-c2ccccc2)cc1`, for which the cell number change is 14.9%. The AC50 under setting [2] was 0.0731 µM [rising, full curve].

Take `COc1cc(NC(=O)CCN2CC(C)OC(C)C2)cc(OC)c1` (stereo unspecified): the cell number change worked out at 23%.

Consider `COc1ccc(S(=O)(=O)N2CCOCC2)cc1NC(=O)/C=C/c1ccc(F)cc1`, for which the cell number change was -75%. Further, the AC50 under setting [1] was 0.231 µM [falling, full curve, poor fit].

As for `CNc1oc(Cc2cccc3ccccc23)nc1C#N`, the cell number change was 6.23%.

Consider `COc1ccc2nc(NC3=NC(C(=O)Nc4ccc(C)cc4)CC(=O)N3)nc(C)c2c1` (stereo unspecified), for which the cell number change was -15.4%. Also, the AC50 under setting [1] was 6.51 µM [rising, single point].

Turning to `Cc1cccc(Oc2ccccc2NC(=O)c2cnccn2)c1`, the AC50 under setting [1] is 1.03 µM [rising, partial curve] and the AC50 under setting [2] is 0.366 µM [rising, partial curve, poor fit].

Regarding `CCC(C)NC(=S)N(CCc1ccccc1)Cc1cc2cc(OC)c(OC)cc2[nH]c1=O` (stereo unspecified), the cell number change is 55.4%. Besides, the AC50 under setting [1] was 0.92 µM [rising, full curve]. For the same molecule, the AC50 under setting [2] was 23.1 µM [falling, partial curve].

For `O=C(NCCN1C(=O)CSC1=O)C1CC(=O)N(c2ccccc2)C1` (stereo unspecified), the cell number change was -36.4%. Moreover, the AC50 under setting [1] was 0.0731 µM [falling, full curve, poor fit]. In addition, the AC50 under setting [2] is 1.64 µM [falling, partial curve].

Regarding `CC(=O)C1=C(C)NC(=O)NC1c1ccccc1OCC(=O)NCCc1ccccc1` (stereo unspecified), the cell number change was 94.8%. Moreover, the AC50 under setting [1] is 14.6 µM [rising, partial curve].
